What all share (assay): pull-down
Data set [1] has as its target U1 snRNP (U1-70K detected) (UniProt P08621). As to conditions: ASO 2-14-2 MOE/2'-F/MOE, PS throughout, 5mC at position 2; greatly reduced U1 snRNP; 150 mM KCl washes; protein in an extract; protein details: nuclear extract; label: 3'-biotin on RNA.
The target of a further data set is hnRNP A1 (UniProt P09651). The following applies: protein in an extract, protein details: nuclear extract.
The test system of a further data set is hnRNP A2. The following applies: protein in an extract, protein details: nuclear extract.
Data set [2] addresses Interleukin enhancer-binding factor 3 (ILF3) (UniProt Q12906). As to conditions: PS throughout, 300 mM KCl washes, protein in an extract, protein details: nuclear extract, label: RNA strand bead-bound, only the site is given.
The next data set addresses Nucleophosmin (NPM) (UniProt P06748). As to conditions: PS throughout, protein in an extract, protein details: nuclear extract, label: RNA strand bead-bound.
The next data set deals with RNA Helicase A (RHA) (UniProt Q08211). The following applies: PS throughout, protein in an extract, protein details: nuclear extract, label: RNA strand bead-bound.
Setting [3] is: ASO strand uniform 2'-MOE, PS throughout, 5mC at all C, absent or reduced with MOE ASO, label: 3'-biotin on RNA, variant of SMN2 intron 7 RNA 23-mer.
Setting [4] is: ASO strand 2'-MOE at two terminal nucleosides each end, 2'-F at 14 central, PS throughout, 5mC at position 2, absent or reduced with 2'-F ASO, label: 3'-biotin on RNA, variant of SMN2 intron 7 RNA 23-mer.
The mark [5] stands for this setting: nuclear extract, 30 C 40 min, 150 mM KCl washes, western blot, label: 3'-biotin.
Setting [6] is: ASO uniform 2'-MOE, 5mC at all C, western, 300 mM KCl washes, only the site is given.
The mark [7] stands for this setting: ASO 2-14-2 MOE/2'-F/MOE, 5mC at position 2, LC-MS and western, 300 mM KCl washes, may be indirect, only the site is given.

By UniProt entry, the sequences of proteins in these tests, tags left out. Where a name states a change or a piece, a line headed by the entry shows the natural chain unless it says otherwise. Residues count along the entry.
UniProt P08621, 2-437: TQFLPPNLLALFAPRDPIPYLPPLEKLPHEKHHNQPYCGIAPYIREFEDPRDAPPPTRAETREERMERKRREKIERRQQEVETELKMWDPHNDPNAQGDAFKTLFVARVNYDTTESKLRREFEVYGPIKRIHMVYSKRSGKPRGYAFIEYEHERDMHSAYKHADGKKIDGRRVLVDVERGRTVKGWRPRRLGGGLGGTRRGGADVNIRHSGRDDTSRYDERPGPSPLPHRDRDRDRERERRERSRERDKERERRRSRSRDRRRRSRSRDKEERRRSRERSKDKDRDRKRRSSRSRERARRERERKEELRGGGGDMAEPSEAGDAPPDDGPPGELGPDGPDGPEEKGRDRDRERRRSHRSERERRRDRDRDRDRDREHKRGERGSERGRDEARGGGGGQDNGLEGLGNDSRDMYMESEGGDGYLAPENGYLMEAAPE
UniProt P09651: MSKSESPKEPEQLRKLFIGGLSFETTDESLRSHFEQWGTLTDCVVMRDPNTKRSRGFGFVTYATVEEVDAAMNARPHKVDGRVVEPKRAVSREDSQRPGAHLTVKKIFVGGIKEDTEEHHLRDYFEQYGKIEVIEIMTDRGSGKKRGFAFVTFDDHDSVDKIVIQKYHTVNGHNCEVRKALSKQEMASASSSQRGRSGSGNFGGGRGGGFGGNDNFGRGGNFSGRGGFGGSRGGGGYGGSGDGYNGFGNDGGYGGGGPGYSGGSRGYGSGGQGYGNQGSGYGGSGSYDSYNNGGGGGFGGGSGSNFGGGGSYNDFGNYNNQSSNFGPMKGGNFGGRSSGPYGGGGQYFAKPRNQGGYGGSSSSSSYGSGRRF
UniProt P06748, whole entry: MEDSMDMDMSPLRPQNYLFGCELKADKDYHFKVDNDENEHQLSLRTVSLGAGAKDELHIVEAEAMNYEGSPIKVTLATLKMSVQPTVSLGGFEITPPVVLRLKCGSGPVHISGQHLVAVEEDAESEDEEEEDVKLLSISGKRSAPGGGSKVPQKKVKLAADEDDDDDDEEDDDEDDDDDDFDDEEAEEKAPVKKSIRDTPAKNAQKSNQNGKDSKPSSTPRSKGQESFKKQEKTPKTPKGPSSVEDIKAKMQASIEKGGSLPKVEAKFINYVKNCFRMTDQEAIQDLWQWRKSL
UniProt Q08211, whole entry: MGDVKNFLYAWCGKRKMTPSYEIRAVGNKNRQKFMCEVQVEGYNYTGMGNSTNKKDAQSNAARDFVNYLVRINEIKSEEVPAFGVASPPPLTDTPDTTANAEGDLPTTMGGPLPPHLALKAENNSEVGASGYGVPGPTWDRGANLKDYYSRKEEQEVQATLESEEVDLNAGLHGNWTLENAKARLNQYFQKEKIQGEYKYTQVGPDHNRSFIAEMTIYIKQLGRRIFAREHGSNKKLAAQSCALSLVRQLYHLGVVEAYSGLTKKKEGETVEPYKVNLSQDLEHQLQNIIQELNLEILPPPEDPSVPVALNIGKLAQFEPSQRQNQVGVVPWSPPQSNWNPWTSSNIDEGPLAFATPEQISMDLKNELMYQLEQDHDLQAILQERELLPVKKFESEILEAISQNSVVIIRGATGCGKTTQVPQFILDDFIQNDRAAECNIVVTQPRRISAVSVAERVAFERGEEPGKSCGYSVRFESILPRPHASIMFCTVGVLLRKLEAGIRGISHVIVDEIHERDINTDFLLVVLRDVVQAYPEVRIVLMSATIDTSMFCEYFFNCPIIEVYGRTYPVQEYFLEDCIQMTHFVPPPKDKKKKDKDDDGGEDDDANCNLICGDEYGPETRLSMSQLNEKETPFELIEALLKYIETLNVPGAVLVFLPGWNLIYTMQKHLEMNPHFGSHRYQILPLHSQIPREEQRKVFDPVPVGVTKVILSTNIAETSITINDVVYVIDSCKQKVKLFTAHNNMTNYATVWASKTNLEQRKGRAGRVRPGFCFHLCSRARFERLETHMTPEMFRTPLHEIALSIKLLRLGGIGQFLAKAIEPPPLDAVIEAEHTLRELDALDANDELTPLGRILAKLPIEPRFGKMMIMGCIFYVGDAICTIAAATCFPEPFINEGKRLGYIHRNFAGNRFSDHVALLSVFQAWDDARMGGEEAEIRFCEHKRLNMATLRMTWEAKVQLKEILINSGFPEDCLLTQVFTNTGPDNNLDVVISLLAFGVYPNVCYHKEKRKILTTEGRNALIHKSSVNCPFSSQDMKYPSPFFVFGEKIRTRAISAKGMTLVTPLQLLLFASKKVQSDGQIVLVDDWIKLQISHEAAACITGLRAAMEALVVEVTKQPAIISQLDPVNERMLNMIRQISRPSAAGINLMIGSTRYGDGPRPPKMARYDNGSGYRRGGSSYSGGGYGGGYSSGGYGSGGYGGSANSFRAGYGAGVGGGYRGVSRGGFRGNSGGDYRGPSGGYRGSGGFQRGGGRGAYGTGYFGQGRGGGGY

For at least one entry, the source does not settle the construct or the ends of the probe. At least one result comes from cells or an extract, where the contact may be indirect. For part of these data: A negative result means that nothing was seen under these conditions. For part of these data: Weaker means in comparison with the reference protein, sequence or condition of that experiment.

For the sequence “AAGAGUAAGUCUGCCAGCAUUAUGAAAGUGAAU / TCACUUUCAUAAUGCUGG [SMN2 5' splice site RNA + ISIS 413147]”, the binding result in data set [1] is “binds more weakly”.
Turning to “CUGCCAGCAUUAUGAAAGUGAAU / TCACTTTCATAATGCTGG [SMN2 intron 7 RNA + ISIS 396443]”, the binding result with hnRNP A1 (setting [3]) and in the data set with hnRNP A2 (setting [3]) was “binds more weakly” each time.
Consider “CUGCCAGCAUUAUGAAAGUGAAU / TCACUUUCAUAAUGCUGG [SMN2 intron 7 RNA + ISIS 413147]”, for which the binding result in the data set with hnRNP A1 (setting [4]) and in the data set with hnRNP A2 (setting [4]) was “binds more weakly” in each case.
As to “CUGCCAGCAUUAUGAAAGUGAAU [SMN2 intron 7 RNA 23-mer]”, the binding result with hnRNP A1 (setting [5]) and in the data set on hnRNP A2 (setting [5]) was “binds” in each case.
In the case of “TCACTTTCATAATGCTGG [ISIS 396443/25-nt target RNA duplex]”, the binding result in data set [2] (ASO uniform 2'-MOE, 5mC at all C, western) is “no binding”; with Nucleophosmin (NPM) (setting [6]), “no binding”; with RNA Helicase A (RHA) (setting [6]), “no binding”.
For the sequence “TCACUUUCAUAAUGCUGG [ISIS 413147/25-nt target RNA duplex]”, the binding result in data set [2] (ASO 2-14-2 MOE/2'-F/MOE, 5mC at position 2, LC-MS and western, may be indirect) is listed as “binds”; in the data set with Nucleophosmin (NPM) (setting [7]) it was “binds”; with RNA Helicase A (RHA) (setting [7]) it was “binds”.
With “UCACTTUCAUAAUGCUGG [ISIS 439419/target RNA duplex]”, the binding result with Nucleophosmin (NPM) (ASO mixed (S)-cEt (k) / 2'-MOE, 5mC at positions 2, 8 and 15, cEt/MOE ASO recruits predominantly NPM) is given as “binds”.
Consider “UCACUUUCAUAAUGCUGG [ISIS 449003/target RNA duplex]”, for which, in the data set with RNA Helicase A (RHA) (ASO uniform 2'-OMe, 2'-OMe shows enhanced selectivity for RHA), the binding result is on record as “binds”.

These data come from patent publication US20130289092.
